Data published in PMC10403741.
Results are given in words; binding and its absence hold for the method and conditions named. In cells and extracts the contact can be indirect. Some entries that bind do so weakly or less than the wild type.

Chains of the proteins cited; added tags and fusions are not shown.
UniProt Q04206: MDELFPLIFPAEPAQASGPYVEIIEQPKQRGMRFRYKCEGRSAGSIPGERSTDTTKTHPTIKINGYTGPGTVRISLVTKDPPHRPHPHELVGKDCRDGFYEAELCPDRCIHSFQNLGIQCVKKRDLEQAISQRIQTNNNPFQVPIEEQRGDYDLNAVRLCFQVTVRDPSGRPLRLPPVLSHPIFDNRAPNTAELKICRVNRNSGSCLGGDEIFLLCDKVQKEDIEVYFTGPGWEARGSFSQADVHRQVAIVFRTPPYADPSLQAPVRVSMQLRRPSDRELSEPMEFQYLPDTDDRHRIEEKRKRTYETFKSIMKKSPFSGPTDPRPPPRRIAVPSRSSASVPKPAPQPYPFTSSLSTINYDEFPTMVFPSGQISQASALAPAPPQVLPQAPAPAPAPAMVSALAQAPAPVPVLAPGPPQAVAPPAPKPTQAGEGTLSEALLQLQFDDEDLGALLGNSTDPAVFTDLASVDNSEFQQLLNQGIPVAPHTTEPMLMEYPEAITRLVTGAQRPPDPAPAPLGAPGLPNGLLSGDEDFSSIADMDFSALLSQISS

Biological target: NF-κB/RelA (human (endogenous in hSAECs)) (UniProt Q04206)
Assay: co-IP; nuclear proteins of RSV-infected hSAECs; NLB buffer (50 mM Tris-HCl pH 7.5, 100 mM NaCl, 50 mM KCl, 3 mM MgCl2, 10% glycerol, 0.1% Tween-20); Benzonase-digested; IP with anti-NF-κB/RelA and blot with anti-NEIL2, and the reverse; beads without antibody as negative control

B1: Nei-like DNA glycosylase 2 (protein, UniProt Q969S2 1-332)
chain: MPEGPLVRKFHHLVSPFVGQQVVKTGGSSKKLQPASLQSLWLQDTQVHGKKLFLRFDLDEEMGPPGSSPTPEPPQKEVQKEGAADPKQVGEPSGQKTLDGSSRSAELVPQGEDDSEYLERDAPAGDAGRWLRVSFGLFGSVWVNDFSRAKKANKRGDWRDPSPRLVLHFGGGGFLAFYNCQLSWSSSPVVTPTCDILSEKFHRGQALEALGQAQPVCYTLLDQRYFSGLGNIIKNEALYRAGIHPLSLGSVLSASRREVLVDHVVEFSTAWLQGKFQGRPQHTQVYQKEQCPAGHQVMKEAFGPEDGLQRLTWWCPQCQPQLSEEPEQCQFS
Question: For B1, which binding is on record?
Answer: The binding was “binds”.
